The nature of this experiment: IkB Signaling. The conditions noted are these: ABC-DLBCL IkBa-CBG/CBR dual luciferase ratio (green luciferase fused to IkBa over red control in OCI-Ly3 lymphoma cells), 4 h. In short, it runs like this: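 Curves were fitted separately to fusion (green), unfused (red) and ratio luminescence, then classed by r2, magnitude and activity. Cells: OCI-Ly3, 4 h compound plus doxycycline at 37C; 10 uM MG-132 defined full response.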
The mark [1] stands for this setting: measured here: control luc red channel unless noted.

Some of the results follow. The main result of the screen is listed elsewhere. These columns were measured beside it and carry no call. Most of these compounds were active or inconclusive in the main read-out, so they are no random draw. Words in brackets tell the shape of the fitted curve; partial curves, single points and poor fits give uncertain potencies.

Usually AC50 stands for the concentration at which the activity in the assay is half-maximal.

As for `CC(C)C(C(=O)OCC(=O)c1ccc2c(c1)NC(=O)CO2)N1C(=O)c2ccccc2C1=O` (stereo not given), under setting [1], the AC50 was 39.8 µM [falling, partial curve].
Same read-out and setting: the value for `O=C(Cn1ccn(-c2cccc(Cl)c2)c(=O)c1=O)c1ccc(F)cc1` was 0.316 µM [falling, full curve, poor fit]; that for `O=C(NCCCN1CCN(c2ccc(F)cc2)CC1)c1sc2ncccc2c1-n1cccc1` was 15.8 µM [falling, single point]; that for `CCOc1ccc(CNC(=O)c2[nH]c3ccccc3c2Sc2ccc(C)cc2)cc1` was 39.8 µM [falling, single point].
`O=C(NC1CCCCC1)c1ccc(CNc2ccccc2)o1`: the AC50 under setting [1] was 25.1 µM [falling, partial curve].
For `Cc1ccc(NC(=O)c2ccco2)cc1NC(=O)CSc1nnc(-c2cccs2)n1C`, under setting [1], the concentration at half-maximal activity (AC50) was 25.1 µM [falling, partial curve].
Still for that read-out and setting: the value for `COc1ccc(OC)c(S(=O)(=O)N2Cc3ccccc3CC2C(=O)Nc2ccc(Cl)cc2)c1` (stereo not given) was 7.94 µM [falling, partial curve].
For `CCOc1ccc(-c2nn(-c3ccccc3)cc2C2NC(=O)NC(C)=C2C(=O)OC(C)C)cc1C` (stereo not given), the half-maximal activity concentration (AC50) under setting [1] was 12.6 µM [falling, partial curve].
Still for that read-out and setting: the value for `CC1CCCCN1c1nc(-c2ccncc2)nc2ccccc12` (stereo not given) was 31.6 µM [falling, partial curve]; that for `O=C1C(c2ccc(F)cc2)N(Cc2ccccc2Cl)C(=O)CN1C1CCCCC1` (stereo not given) was 25.1 µM [falling, partial curve]; that for `CCn1c(Cn2nnc(-c3ccccc3)n2)nnc1SCc1ccc(Cl)c(Cl)c1` was 25.1 µM [falling, partial curve].
Same read-out and setting: the value for `COc1ccccc1NC(=O)CN1C(=O)CC(c2ccc(C)c(C)c2)=Nc2ccccc21` was 39.8 µM [falling, single point].
For the compound `CCCn1c(CN2CCN(C(=O)OCC)CC2)nc2c1c(=O)n(C)c(=O)n2C`, the AC50 (measured here: IkB-luc green channel) is 15.8 µM [rising, partial curve] and the AC50 (measured here: control luc red channel) was 0.794 µM [falling, full curve].
`Nc1ccccc1O`: under setting [1], the AC50 was 2.51 µM [falling, full curve].
As to `COc1ccc(N2CCN(S(=O)(=O)CCNC(=O)COc3cccc(OC)c3)CC2)cc1`, the AC50 under setting [1] was 0.316 µM [rising, partial curve].
`Cc1cccc(Cn2c(SCc3ccc(C(=O)N4CCC(C)CC4)cc3)nc3ccncc32)c1`: the AC50 under setting [1] was 12.6 µM [falling, partial curve].
Consider `CCn1c(CN2CCCCC2)nc2cc(NC(=O)c3ccccc3[N+](=O)[O-])ccc21`, for which the AC50 under setting [1] is 3.16 µM [falling, partial curve].
`Cc1nn(-c2ccccc2)c(OC(=O)c2ccc(F)cc2)c1S(=O)(=O)c1ccccc1`: the AC50 under setting [1] was 3.16 µM [falling, full curve, poor fit].
With `CCCn1cc(S(=O)(=O)c2ccc(C)cc2)c(=O)c2cc(OC)c(OC)cc21`, the AC50 under setting [1] is 39.8 µM [falling, single point].
On the same count and under the same terms, the value for `COc1cccc(NC(=O)C(=O)NCCc2csc(-c3ccc(C)cc3)n2)c1` was 0.251 µM [falling, full curve]; that for `CCOc1ccc(C(=O)Nc2ccc(C(=O)OCc3cc(=O)n4ccsc4n3)cc2)cc1` was 6.31 µM [falling, full curve].
Turning to `O=C(Nc1cccc2cccnc12)c1cccc2ccccc12`, under setting [1], the half-maximal activity concentration (AC50) was 3.16 µM [rising, partial curve].
As for `S=C(Nc1ccccc1)Nc1nccs1`, the AC50 under setting [1] is 39.8 µM [rising, single point] [measured here: IkB-luc green channel].
As to `COc1cccc(N2CCN(C(=O)c3cc4c(=O)n(Cc5cccs5)ccc4nc3C)CC2)c1`, the AC50 under setting [1] was 31.6 µM [falling, single point].
In the case of `CN1CSC2=C(C#N)C(c3cccc(OCc4ccccc4)c3)CC(=O)N2C1` (stereo not given), under setting [1], the AC50 is 39.8 µM [rising, single point] [measured here: IkB-luc green channel].
For `Cc1ccc(CNC(=O)Cn2ncc3c([nH]c4ccc(C)cc43)c2=O)cc1`, the AC50 under setting [1] is 10 µM [rising, partial curve].
Same read-out and setting: then `COc1cc(C(=O)Nc2nc3c(s2)Cc2c(Br)ccc(OC)c2-3)cc(OC)c1OC`, with 3.98 µM [falling, full curve]; and `O=C(Nc1nnc(N2CCCCCC2)s1)Nc1ccccc1C(F)(F)F`, with 39.8 µM [falling, single point]; and `COc1ccc(Cl)cc1NC(=O)CSc1c2c(nc3ccccc13)CCC2`, with 3.16 µM [falling, single point].
On the same count and under the same terms, then `O=C(c1oc2ccccc2c1CSCc1ccccc1)N1CCN(c2ncccn2)CC1`, with 10 µM [falling, partial curve]; and `Cc1ccc(NC(=O)NCCOCCn2c(=O)oc3ccccc32)cc1F`, with 10 µM [falling, full curve]; and `Clc1ccc(C(c2nnnn2C2CCCCC2)N(Cc2cccnc2)Cc2ccco2)cc1` (stereo not given), with 20 µM [falling, partial curve].
For `Cc1cccc(NC(=O)c2c(NC(=O)c3ccccc3)sc3c2CCCC3)c1`, the AC50 under setting [1] is 25.1 µM [rising, partial curve] [measured here: IkB-luc green channel].
Turning to `N#CC1=C2SCN(c3ccc(F)cc3)CN2C(=O)CC1c1cccc(F)c1` (stereo not given), the AC50 under setting [1] is 10 µM [falling, partial curve].
Take `CN1CCSc2ccc(C(=O)NCc3ccccc3F)cc21`: the AC50 under setting [1] is 25.1 µM [falling, single point].
In the case of `COC(=O)c1ccc(C(=O)OC)c(NC(=O)N2CC3CCCN3c3ccccc32)c1` (stereo not given), the AC50 under setting [1] was 39.8 µM [rising, partial curve].
Consider `CCOc1ccccc1NC(=O)CSc1nc2c([nH]c3ccccc32)c(=O)n1-c1ccccc1`, for which the AC50 under setting [1] was 0.0251 µM [falling, full curve, poor fit].
As for `Cc1ccc(Cl)cc1N1CCN(C(=O)c2cc3c(=O)n(C)c4ccccc4c3s2)CC1`, the AC50 under setting [1] is 12.6 µM [falling, partial curve].
On to `CCOC(=O)c1cccc(NC(=O)c2cc3sccc3n2C)c1`, for which the concentration at half-maximal activity (AC50) under setting [1] was 20 µM [falling, partial curve].
